± gives the uncertainty stated by the source. This is one part of the list.
Assays:
[1] = system: Acinetobacter baumannii Mahidol; assay: percent growth relative to DMSO-treated control; higher = less growth inhibition; conditions: 10 µM; 18 h
[2] = system: Acinetobacter baumannii Naval-81; assay: as above; conditions: 10 µM; 18 h

| SMILES | percent growth [1] [%] | percent growth [2] [%] |
| --- | --- | --- |
| OC[C@H]1O[C@@H](n2c3ccc(Cl)cc3c3c(-c4cc5ccccc5o4)ncnc32)C(O)[C@H]1O (some centres undefined) | 83 ± 10 | 101 ± 13 |
| O=S(=O)(c1ccc(Cl)cc1)N1CCN(C(=S)NCc2ccco2)CC1 | 48.6 ± 43 | 99.7 ± 40 |
| CC(=O)Nc1ccc(NC(=O)c2cc(-c3cc(Cl)ccc3O)[nH]n2)cc1 | 136 ± 36 | 88.9 ± 7.2 |
| COc1cccc(-n2nnnc2S(C)(=O)=O)c1 | 99.9 ± 2.4 | 79.91 ± 0.67 |
| CCCn1c(NC(=O)c2ccc3ccccc3n2)nc2ccccc21 | 84.8 ± 13 | 99.7 ± 9.3 |
| CC(=O)NCC1CN(c2ccc(-c3ccc(CNCc4cn[nH]n4)cc3)c(F)c2)C(=O)O1 (centres undefined) | 92 ± 12 | 90.5 ± 5.9 |
| Cc1cc(Nc2ccc(C(F)(F)F)cc2)n2ccnc2n1 | 52.7 ± 13 | 53.3 ± 1.8 |
| O=C(C(Cc1c[nH]c2ccccc12)NS(=O)(=O)c1ccc(Cl)cc1)N1CCCCC1 (centres undefined) | 129 ± 27 | 98.6 ± 40 |
| COc1cc(C2=NCCN2)ccc1-c1cn(-c2cccc(C3=NCCN3)c2)nn1 | 92.9 ± 7.5 | 89.5 ± 3 |
| Nc1ccc2ncnc(Nc3ccc(OCc4cccc(F)c4)c(Cl)c3)c2c1 | 87 ± 18 | 65.1 ± 60 |
| COc1ccc(OC(C)C(=O)Nc2ccc(Cl)cc2C)cc1 (centres undefined) | 101 ± 12 | 92.7 ± 7.4 |
| Cc1cccnc1NC(=O)c1cccc(OCc2c(C)noc2C)c1 | 92.7 ± 7.7 | 96.5 ± 21 |
| COc1ccc(C2=NN(C3CCCCCC3)C(=O)[C@@H]3CC=CC[C@H]23)cc1OCCCCOc1ccc(-c2nn[nH]n2)cc1 | 79.7 ± 73 | 86.6 ± 9.4 |
| Cc1cc(Nc2ccncc2)n2nc(C)c(-c3ccccc3Cl)c2n1 | 113 ± 30 | 89.8 ± 6.1 |
| COc1ccc(CCN2CCC(NCc3cccc(N(C)C)c3)CC2)cc1 | 94.6 ± 5.5 | 86 ± 4.8 |
| CC1CCCN(C(=O)C(C)Nc2cc(Cl)ccc2N2CCOCC2)C1 (centres undefined) | 94.2 ± 3.3 | 96.8 ± 6 |

Looked up above.
CC(=O)NCC1CN(c2ccc(-c3ccc(CNCc4cn[nH]n4)cc3)c(F)c2)C(=O)O1 (centres undefined) – percent growth [2] [%]: 90.5 ± 5.9
COc1ccc(CCN2CCC(NCc3cccc(N(C)C)c3)CC2)cc1 – percent growth [2] [%]: 86 ± 4.8

Additional results.

| SMILES | percent growth [1] [%] | percent growth [2] [%] |
| --- | --- | --- |
| COC(=O)Nc1nc2cc(C(=O)c3ccccc3)ccc2[nH]1 | 94 ± 28 | 112 ± 46 |
| CCN(CC)S(=O)(=O)c1ccc(Cl)c(C(=O)Nc2ccc3nc(C)sc3c2)c1 | 89.7 ± 24 | 111 ± 58 |
| O=C(NCc1nnc2n1CCCCC2)c1ccc(-c2ccc(F)cc2)o1 | 102 ± 11 | 88.1 ± 2.4 |
| CN1CCN(c2nccc3[nH]c(-c4cccc(F)c4)cc23)CC1 | 96.7 ± 14 | 80 ± 7 |
| O=C(Cn1ccnc1[N+](=O)[O-])NCc1ccccc1 | 87.8 ± 38 | 115 ± 42 |
| CC1=NN(c2nc3ccccc3s2)C(=O)C1Cc1cccc2ccccc12 (centres undefined) | 59.1 ± 10 | 84.2 ± 23 |
| Cc1nc(-c2ccccn2)nc(N2CCC(Cc3ccccc3)C2)c1Cl (centres undefined) | 95.3 ± 6.7 | 81 ± 5.5 |
| COc1nc2ccc(Br)cc2cc1[C@@H](c1ccccc1)[C@@](O)(CCN(C)C)c1cccc2ccccc12 | 107 ± 11 | 92.8 ± 15 |
| Cc1ccc(NC(=O)c2cc(S(=O)(=O)NC(C)(C)C)ccc2C)nc1 | 92.5 ± 5.9 | 104 ± 25 |
| CCc1nc2ccccc2n1CC(O)COc1cc(C)ccc1Cl (centres undefined) | 106 ± 13 | 86 ± 11 |
| Cc1cc(NC(=O)c2ccc(Oc3ccc(Cl)cc3O)o2)no1 | 83.1 ± 35 | 37.4 ± 16 |
| C[C@H]1COc2c(N3CCN(C)CC3)c(F)cc3c(=O)c(C(=O)O)cn1c23 | -0.0716 ± 0.12 | 38.4 ± 46 |
| O=C(c1ccc(F)cc1)N(CCNc1ccccc1)c1ccccc1 | 96.9 ± 9.2 | 89.8 ± 6.4 |
| c1ccc(-c2[nH]c3ccccc3c2C(c2ccccn2)N2CCCC2)cc1 (centres undefined) | 106 ± 26 | 109 ± 32 |
| O=C1[C@@H](Oc2ccccc2)[C@@H](c2ccc(Cl)cc2)N1CCn1cnc2c(NCc3ccccc3)ncnc21 | 100 ± 10 | 103 ± 14 |
| CC(C)(C)n1nc(Cc2cccc3ccccc23)c2c(N)ncnc21 | 96.4 ± 2.6 | 84.8 ± 58 |

Reference: the supplement of paper PMC6821926, “Diaminoquinazoline MMV675968 from Pathogen Box inhibits Acinetobacter baumannii growth through targeting of dihydrofolate reductase” (Scientific Reports, 2019)
